T1: HA-DRC1 (UniProt Q3USS3)
T1 sequence: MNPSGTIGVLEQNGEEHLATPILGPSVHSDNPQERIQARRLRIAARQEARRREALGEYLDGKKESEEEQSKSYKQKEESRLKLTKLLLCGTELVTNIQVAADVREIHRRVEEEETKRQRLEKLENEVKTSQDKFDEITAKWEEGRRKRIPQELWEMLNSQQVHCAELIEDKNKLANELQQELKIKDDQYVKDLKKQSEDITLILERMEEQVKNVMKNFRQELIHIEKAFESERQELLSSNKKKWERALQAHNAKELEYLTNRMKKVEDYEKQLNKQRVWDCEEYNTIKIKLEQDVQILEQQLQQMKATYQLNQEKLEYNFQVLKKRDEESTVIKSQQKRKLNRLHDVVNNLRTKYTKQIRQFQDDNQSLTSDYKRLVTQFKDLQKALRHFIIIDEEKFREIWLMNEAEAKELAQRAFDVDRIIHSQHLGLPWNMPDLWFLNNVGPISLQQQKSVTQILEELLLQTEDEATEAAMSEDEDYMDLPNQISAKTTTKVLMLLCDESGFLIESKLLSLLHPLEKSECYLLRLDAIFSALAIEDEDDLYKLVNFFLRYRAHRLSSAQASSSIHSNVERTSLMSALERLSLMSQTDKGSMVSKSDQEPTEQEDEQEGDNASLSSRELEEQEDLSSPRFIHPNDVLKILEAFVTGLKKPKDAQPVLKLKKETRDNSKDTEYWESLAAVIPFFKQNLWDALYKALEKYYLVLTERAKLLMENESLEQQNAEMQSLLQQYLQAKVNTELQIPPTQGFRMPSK

B1: Flag-DRC3 (protein, UniProt Q9D5E4 1-523)
chain: MSRPYDSMEPKVMDDDMLKAAVGEQGPQEEAGQLAKQEGILFKDVLSLQLDFQNILRIDNLWQFENLKKLQLNNNIIERIEGLTNLIHLVWLDLSFNNIEAIEGLDTLVNLEDLSLSNNRISKVDSLDALVKLQVLSLGNNQISNMMNIIYLRRFPCLRTLSLAGNPVSEAEEYKMFIYAYLSDLVYLDFRRVDEQMREMAKMKHQYSIDELKHREAQLQMKLEEEQAKQEKLEEHKMAFVEHLNGPFLFDSMYSEDVEGNKLSYLPGVRELLEAYKDKFVIICLNIFEYGLNQQEKRKVELDTFNECIQEAILENQDQGKLKVAKFEEKHLLNLNAIREETDLSNIEKKLTECTESIGELFNTLMILEMQLVEQLEETINIFERNITDLVGLFIENVQSLIAQCRDLENHHHEKLLEIAINTLEKILKGEMDEDLPDDVRALFVDKDTIVNAVGASHDIHLLKIDNREDELVTGINSWCAHLVDKIHKDEIMRNRKRVKEINQFVDHMQSELDNLECGDIID
B2: Flag-DRC4 (protein, UniProt Q60779 1-478)
chain: MAPKKKGKKGKAKGTAIVDGVAPEDMTKEQVEEHVARIREELDREREERNYFQLERDKIHTFWEITRRQLEEKKAELRNKDREMEEAEERHQVEIKVYKQKVKHLLYEHQNNLAEVKAEGTVVMKLAQKEHRTQEGALRKDMRVLKVELKEQELANEVVIKNLCLKQAEEITKMRNDFERQVREIEAKYDKKMKMLRDELDLRRKTEIHEVEERKNGQISTLMQRHEEAFTDIKNYYNDITLNNLALINSLKEQMEDMRKKEEHMEREMAEVTLQNRRLADPLQKAKDEMNEMQKRLGNHERDKQILVCTKARLKVAERELKDLKWEHEVLEQRFIKVQQEREELYRKFADAIQEVQQKTGFKNLLLERKLQALNAAVEKREVQFNEVLAASNLDPTALTLVSRKLEDVLESKNTTIKDLQYELARVCKAHNDLLRTYEAKLLAFGIPLDNVGFKPLETAVIGQTLGQGPAGLVGAPT
B3: Flag-DRC5 (protein, UniProt A6H639 1-498)
chain: MQETPSVPSNSSSHSQSVLTIQRQVSALGSSSTGPTSLKTSSTPTPGQLKTKVPNVRRMRRIISEDAEWSLAIVPLLTELCIQHIVKNFQNNPILKQLPLEHQKKVLSNLPPELPLTVTANLIDDENYWHRCCIKRWSVCHVSRHGGSWKRMFFERHLENLLKLFIPGTTDPNVILDLLPLCRNYVRRIHVDQFLPPVRMPTPLQGEEQSDSGSEGEGSEPEKDHYQLQTLVGGLKHLEELDLVYGVKDCGMNFEWNLFLFTYRDCYSLAATIKACHTLKIFKLTRSKVDDDKARILIRSLLDHPALEELDLSHNLIGDRGARAAAKLLSHSRLRVLNLANNQLQAPGAQSLAHALAHNTNLVFLNLRLNCIEDEGGQAIAHALETNKCLSVLHLGGNKLSEPTATLLSQMLTVNTTLVSLNLSCNHIGQDGGKQLLEGISDNKTILEFDLRLSDVSQESEYLIGQVLHANREAARQRTLNPGHFSSPTNNCTENSVV
B4: Flag-DRC2 (protein, UniProt Q8VHI7 1-493)
chain: MSKKGKKPKLPKAPLSEEDQLLIFQQKMLADEEAAKKKERLLTQFLKDKLAKEEHNSALNLNKINTQWRTILREVKTRELHQDIEILSQTFERVVDCKDSVIKSLAKDLTEAEEQYAHALRSHLHNIDQLLTLQRRRLGLLEENYNMELEVLTKEFETERKLIIDHHEKEMHYLQDVFMAMEQNYIDSEYESKLEFQSMWDDLKNKNLEEKHFLRLQLENIVEDLWRRFQDALKNYTDATEDRKIAFEYLKVKDEKSSKEIETQMKKIQKLQETIGILKGKIVAHSREGEWQNQCIRNNKELVHVQLRKLKVQRTQARTLSQENLVKLTLESNATLKALKKVVEKGEKILKLAEICRKFETEEEKVLPFYSSVLTPEEQEEAKLQNPEDITEDLAKIMMDYAGMENFWKRYNKVKLEVLSLQHRRLQLLDISSKLREMLKQYLDGISVSDEVLSHLNPLFVVNHRSNLPQLPPPSAQPVYNVIEAAHIASHIL

Results are given in words; binding and its absence hold for the method and conditions named. Binding seen in cells or lysates may run through a third protein. Some binding calls cover weakened binding; strength is not graded here. Sequences can lack the tags named with a protein.

The target in this assay is T1, HA-DRC1. The assay is described as follows: co-IP; HA-DRC1 coexpressed with one Flag-DRC component in HEK293T cells; RIPA lysate, anti-HA-tag antibody overnight at 4°C, Protein G magnetic beads, washed thrice with RIPA buffer; blot for Flag.
For B1, the binding entry is on record as “binds”.
Next, B2: “binds”; B3: “binds”; B4: “binds”.

Source of the values: article PMC8522639.
